We go through 15 targets from the supplement of paper PMC6411743.

The chains behind the UniProt entries cited, without tags or fusion partners. Where a name states a change or a piece, a line headed by the entry shows the natural chain unless it says otherwise.
UniProt Q15172: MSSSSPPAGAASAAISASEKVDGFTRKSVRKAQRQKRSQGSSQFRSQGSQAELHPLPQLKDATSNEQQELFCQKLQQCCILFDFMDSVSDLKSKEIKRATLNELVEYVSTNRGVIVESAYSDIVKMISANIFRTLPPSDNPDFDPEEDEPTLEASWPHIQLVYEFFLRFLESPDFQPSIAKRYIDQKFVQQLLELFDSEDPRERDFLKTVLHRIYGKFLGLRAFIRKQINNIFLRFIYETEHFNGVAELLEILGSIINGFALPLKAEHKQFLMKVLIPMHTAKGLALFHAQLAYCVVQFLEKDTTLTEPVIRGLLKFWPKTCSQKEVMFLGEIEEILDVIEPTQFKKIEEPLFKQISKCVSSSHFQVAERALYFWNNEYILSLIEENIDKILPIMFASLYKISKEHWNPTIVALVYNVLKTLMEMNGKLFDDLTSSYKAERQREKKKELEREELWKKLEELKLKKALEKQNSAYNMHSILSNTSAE
UniProt Q16864, whole entry: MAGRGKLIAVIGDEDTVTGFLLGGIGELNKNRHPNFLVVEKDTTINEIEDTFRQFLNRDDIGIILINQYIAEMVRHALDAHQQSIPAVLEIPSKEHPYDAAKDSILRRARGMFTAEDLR
UniProt Q15121, whole entry: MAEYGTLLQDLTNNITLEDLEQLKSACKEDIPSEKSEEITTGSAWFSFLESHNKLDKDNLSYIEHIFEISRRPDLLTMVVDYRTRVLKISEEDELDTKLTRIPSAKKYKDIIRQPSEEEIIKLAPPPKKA
UniProt Q14CX7, whole entry: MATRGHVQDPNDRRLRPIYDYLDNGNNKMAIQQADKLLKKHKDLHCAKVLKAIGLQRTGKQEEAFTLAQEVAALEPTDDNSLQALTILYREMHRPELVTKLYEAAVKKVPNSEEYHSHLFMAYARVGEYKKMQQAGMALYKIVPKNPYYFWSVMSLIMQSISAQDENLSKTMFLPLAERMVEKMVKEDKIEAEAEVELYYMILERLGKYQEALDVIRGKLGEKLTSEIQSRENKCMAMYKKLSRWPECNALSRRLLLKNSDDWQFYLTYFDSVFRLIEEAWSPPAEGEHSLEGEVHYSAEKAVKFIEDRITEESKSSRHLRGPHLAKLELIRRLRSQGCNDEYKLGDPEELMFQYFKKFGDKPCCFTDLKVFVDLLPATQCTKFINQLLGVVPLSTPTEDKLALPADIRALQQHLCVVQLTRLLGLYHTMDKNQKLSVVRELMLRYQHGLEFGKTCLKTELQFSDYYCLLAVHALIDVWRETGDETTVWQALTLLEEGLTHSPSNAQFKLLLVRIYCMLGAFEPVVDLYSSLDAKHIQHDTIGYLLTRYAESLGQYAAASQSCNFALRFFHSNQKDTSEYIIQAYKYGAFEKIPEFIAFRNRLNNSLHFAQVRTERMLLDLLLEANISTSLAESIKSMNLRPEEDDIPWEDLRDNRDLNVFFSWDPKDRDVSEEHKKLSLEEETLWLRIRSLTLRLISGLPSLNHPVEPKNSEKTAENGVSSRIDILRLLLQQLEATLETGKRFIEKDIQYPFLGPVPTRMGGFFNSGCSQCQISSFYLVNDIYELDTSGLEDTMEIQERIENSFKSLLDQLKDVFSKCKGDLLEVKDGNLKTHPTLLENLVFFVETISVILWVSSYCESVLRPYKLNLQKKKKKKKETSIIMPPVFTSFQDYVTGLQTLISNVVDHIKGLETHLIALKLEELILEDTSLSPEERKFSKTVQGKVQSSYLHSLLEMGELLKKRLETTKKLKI
UniProt Q3B7T1: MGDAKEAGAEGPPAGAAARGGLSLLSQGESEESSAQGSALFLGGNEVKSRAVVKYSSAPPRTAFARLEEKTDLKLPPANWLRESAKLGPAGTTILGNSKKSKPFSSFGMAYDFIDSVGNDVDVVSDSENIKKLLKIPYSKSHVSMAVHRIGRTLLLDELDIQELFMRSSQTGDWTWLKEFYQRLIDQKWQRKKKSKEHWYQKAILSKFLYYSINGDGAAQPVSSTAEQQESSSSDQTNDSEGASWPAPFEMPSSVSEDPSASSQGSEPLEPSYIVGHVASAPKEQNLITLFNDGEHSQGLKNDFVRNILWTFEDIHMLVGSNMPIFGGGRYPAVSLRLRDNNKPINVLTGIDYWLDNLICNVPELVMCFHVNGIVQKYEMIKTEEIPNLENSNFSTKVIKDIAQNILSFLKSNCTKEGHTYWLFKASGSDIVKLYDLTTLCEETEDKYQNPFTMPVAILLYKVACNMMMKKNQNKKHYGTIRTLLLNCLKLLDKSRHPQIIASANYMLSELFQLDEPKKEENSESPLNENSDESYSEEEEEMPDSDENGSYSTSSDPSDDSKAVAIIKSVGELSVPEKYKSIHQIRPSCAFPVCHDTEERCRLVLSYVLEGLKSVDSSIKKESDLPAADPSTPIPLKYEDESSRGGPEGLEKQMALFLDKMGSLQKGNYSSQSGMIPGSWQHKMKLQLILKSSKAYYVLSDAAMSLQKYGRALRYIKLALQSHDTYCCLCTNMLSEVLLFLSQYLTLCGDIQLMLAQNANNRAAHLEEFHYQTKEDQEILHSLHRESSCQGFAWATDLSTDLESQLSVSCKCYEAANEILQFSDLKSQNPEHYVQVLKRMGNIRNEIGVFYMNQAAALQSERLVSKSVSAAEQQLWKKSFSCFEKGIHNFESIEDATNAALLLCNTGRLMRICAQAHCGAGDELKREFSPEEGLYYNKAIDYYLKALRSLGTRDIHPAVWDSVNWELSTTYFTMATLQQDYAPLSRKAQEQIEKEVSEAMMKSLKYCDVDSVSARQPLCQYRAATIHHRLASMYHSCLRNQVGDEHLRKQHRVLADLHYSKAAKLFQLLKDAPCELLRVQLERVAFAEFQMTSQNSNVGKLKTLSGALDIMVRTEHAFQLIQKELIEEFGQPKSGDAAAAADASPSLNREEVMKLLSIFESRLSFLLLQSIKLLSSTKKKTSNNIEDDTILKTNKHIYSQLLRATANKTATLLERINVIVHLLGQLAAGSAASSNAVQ
UniProt Q14865: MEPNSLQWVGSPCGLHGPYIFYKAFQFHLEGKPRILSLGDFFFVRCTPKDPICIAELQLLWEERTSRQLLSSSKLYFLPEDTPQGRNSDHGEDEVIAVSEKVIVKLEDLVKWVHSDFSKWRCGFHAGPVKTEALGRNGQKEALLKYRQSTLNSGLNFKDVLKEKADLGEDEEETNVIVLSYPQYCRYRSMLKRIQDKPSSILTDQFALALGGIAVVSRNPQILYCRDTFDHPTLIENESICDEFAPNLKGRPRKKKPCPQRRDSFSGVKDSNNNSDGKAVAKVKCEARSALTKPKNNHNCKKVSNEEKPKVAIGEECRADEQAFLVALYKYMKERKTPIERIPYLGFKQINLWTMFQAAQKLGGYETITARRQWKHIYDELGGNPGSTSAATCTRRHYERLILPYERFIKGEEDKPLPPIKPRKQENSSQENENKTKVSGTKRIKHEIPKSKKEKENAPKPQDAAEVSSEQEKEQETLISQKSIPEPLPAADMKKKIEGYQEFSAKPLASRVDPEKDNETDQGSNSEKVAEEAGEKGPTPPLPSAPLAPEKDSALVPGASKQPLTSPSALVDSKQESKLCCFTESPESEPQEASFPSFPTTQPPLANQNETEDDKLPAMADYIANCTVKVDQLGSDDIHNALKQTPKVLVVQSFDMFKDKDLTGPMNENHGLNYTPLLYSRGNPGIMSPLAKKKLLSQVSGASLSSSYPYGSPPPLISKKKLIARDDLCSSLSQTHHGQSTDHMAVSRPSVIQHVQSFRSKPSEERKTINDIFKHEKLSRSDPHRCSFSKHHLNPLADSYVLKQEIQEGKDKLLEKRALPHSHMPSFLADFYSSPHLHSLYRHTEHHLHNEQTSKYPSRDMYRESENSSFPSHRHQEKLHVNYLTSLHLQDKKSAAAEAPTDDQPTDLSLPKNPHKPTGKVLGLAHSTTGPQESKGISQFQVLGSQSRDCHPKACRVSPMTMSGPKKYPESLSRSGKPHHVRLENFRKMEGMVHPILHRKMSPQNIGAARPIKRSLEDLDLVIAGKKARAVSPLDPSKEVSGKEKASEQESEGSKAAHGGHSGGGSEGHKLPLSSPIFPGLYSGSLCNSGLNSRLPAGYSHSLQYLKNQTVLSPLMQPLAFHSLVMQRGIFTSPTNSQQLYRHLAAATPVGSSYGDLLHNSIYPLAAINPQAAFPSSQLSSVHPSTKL
UniProt Q5T6F2: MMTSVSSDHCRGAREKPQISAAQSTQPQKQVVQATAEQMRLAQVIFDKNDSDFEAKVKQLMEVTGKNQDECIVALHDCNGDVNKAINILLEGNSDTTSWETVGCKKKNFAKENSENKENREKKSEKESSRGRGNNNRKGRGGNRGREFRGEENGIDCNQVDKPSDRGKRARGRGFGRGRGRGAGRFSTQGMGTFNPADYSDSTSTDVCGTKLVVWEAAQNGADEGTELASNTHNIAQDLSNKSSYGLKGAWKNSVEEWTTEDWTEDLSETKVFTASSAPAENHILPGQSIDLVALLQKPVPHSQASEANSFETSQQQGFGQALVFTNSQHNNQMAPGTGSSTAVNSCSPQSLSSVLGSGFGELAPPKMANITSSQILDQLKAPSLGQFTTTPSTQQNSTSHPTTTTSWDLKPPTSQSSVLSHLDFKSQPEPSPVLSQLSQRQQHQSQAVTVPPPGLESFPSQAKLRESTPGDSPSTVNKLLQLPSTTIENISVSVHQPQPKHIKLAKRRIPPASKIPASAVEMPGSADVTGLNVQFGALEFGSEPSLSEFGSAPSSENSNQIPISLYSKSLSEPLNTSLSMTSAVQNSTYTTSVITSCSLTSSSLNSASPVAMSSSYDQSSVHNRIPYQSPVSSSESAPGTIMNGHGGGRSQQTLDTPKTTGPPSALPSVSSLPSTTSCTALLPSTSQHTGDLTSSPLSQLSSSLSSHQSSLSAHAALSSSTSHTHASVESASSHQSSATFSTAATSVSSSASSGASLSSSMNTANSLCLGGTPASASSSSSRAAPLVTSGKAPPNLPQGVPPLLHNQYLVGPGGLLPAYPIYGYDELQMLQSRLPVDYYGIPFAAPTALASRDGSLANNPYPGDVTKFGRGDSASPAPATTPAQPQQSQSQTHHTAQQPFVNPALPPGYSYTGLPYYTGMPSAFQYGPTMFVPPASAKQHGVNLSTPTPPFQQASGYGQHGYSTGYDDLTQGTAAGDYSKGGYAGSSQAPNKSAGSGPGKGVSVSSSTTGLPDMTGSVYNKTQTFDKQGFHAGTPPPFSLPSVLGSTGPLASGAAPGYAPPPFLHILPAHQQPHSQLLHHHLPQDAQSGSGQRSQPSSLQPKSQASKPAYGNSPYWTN
UniProt Q2NKX8: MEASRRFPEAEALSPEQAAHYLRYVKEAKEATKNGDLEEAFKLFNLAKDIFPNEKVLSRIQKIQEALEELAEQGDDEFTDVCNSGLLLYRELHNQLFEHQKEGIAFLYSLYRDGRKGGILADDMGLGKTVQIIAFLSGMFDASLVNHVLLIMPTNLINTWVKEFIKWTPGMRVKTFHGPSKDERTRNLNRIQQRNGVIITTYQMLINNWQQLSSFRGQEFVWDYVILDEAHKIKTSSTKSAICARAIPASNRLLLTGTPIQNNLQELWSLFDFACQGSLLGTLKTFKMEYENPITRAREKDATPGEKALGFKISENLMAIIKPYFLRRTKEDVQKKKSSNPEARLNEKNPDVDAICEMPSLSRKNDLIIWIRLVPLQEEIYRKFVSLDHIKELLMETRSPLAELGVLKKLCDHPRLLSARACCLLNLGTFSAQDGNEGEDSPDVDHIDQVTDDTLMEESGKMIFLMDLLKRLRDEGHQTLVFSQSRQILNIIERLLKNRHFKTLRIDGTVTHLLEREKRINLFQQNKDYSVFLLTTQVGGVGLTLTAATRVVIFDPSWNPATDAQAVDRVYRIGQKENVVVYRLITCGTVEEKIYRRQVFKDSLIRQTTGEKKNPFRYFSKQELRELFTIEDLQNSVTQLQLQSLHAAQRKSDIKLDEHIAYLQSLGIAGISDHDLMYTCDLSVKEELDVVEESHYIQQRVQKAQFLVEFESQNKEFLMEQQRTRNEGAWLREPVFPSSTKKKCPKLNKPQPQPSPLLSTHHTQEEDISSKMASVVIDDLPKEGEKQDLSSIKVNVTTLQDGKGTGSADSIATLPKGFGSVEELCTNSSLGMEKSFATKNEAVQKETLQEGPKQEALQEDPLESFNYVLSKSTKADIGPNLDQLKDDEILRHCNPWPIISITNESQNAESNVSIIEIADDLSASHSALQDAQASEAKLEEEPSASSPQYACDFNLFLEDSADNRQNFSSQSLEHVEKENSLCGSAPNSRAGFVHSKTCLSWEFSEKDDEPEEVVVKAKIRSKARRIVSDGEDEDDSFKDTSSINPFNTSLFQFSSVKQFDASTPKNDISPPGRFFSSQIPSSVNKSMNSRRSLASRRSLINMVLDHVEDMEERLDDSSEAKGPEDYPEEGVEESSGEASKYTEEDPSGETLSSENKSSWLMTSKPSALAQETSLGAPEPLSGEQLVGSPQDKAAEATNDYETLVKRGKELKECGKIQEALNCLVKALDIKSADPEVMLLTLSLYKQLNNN

Compound in this experiment: Nc1nc2c(ncn2[C@@H]2O[C@H](COP(=O)(O)OP(=O)(O)OP(=O)(O)O)[C@@H](O)[C@H]2O)c(=O)[nH]1 [guanosine triphosphate]
Briefly: NP40-soluble protein abundance relative to vehicle (solubility fold change) (ratio); higher = more soluble protein in presence of GTP. The method, boiled down: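 Jurkat crude lysate (Dounce-homogenised) was treated with eight concentrations from 0.1 to 10 mM for 10 min at room temperature, then 3 min at 37 °C. It was solubilised with 0.8% NP40 and benzonase (60 min, 4 °C) and ultracentrifuged, and the supernatant was TMT-labelled for LC-MS/MS. Intensities were vsn-normalised, and the value is the fold change against the NP40-processed vehicle per replicate, from three independent experiments.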

± gives the standard deviation of the averaged measurements. This is one part of the list.

Take PPP2R5A (UniProt Q15172): the NP40-soluble protein abundance (concentration: 0.1mM) turned out to be 1.04 ± 0.063; the NP40-soluble protein abundance (concentration: 0.5mM) was found to be 0.993 ± 0.046; the NP40-soluble protein abundance (concentration: 1mM) was 0.939 ± 0.011; the NP40-soluble protein abundance (concentration: 2mM) stood at 0.9 ± 0.033; the NP40-soluble protein abundance (concentration: 4mM) turned out to be 0.877 ± 0.048; the NP40-soluble protein abundance (concentration: 6mM) came out at 0.864 ± 0.04. Moreover, the NP40-soluble protein abundance reads like this: (concentration: 8mM) 0.862 ± 0.097; (concentration: 10mM) 0.848 ± 0.055.

For the target UniProt Q16864 and related entries, the NP40-soluble protein abundance was 0.906 ± 0.02 (concentration: 0.1mM); 0.931 ± 0.05 (concentration: 0.5mM); 1.032 ± 0.01 (concentration: 1mM); 1.04 ± 0.067 (concentration: 2mM); 0.999 ± 0.061 (concentration: 4mM); 1.02 ± 0.034 (concentration: 6mM). Moreover, the NP40-soluble protein abundance reads like this: (concentration: 8mM) 0.992 ± 0.073; (concentration: 10mM) 1.02 ± 0.027.

Take UniProt Q15121 and related entries: the NP40-soluble protein abundance runs as follows: (concentration: 0.1mM) 0.969 ± 0.25; (concentration: 0.5mM) 0.983 ± 0.1; (concentration: 1mM) 1.06 ± 0.2; (concentration: 2mM) 0.946 ± 0.14; (concentration: 4mM) 0.924 ± 0.034; (concentration: 6mM) 1.03 ± 0.21. For the same target, the NP40-soluble protein abundance amounted to 1 ± 0.13 (concentration: 8mM) and 1.07 ± 0.024 (concentration: 10mM).

Take TRIP13 (UniProt Q15645): the NP40-soluble protein abundance is, setting by setting: (concentration: 0.1mM) 1.07 ± 0.076; (concentration: 0.5mM) 1.06 ± 0.11; (concentration: 1mM) 0.923 ± 0.054; (concentration: 2mM) 0.971 ± 0.085; (concentration: 4mM) 0.943 ± 0.072; (concentration: 6mM) 0.935 ± 0.065. The NP40-soluble protein abundance reads like this: (concentration: 8mM) 0.883 ± 0.048; (concentration: 10mM) 0.862 ± 0.044.

Turning to PPP2R5D (UniProt Q14738), the NP40-soluble protein abundance runs as follows: (concentration: 0.1mM) 0.946 ± 0.038; (concentration: 0.5mM) 0.969 ± 0.061; (concentration: 1mM) 0.972 ± 0.063; (concentration: 2mM) 0.952 ± 0.062; (concentration: 4mM) 0.928 ± 0.08; (concentration: 6mM) 0.936 ± 0.078. For the same target, the NP40-soluble protein abundance stood at 0.946 ± 0.044 (concentration: 8mM) and 0.951 ± 0.043 (concentration: 10mM).

As for UniProt Q14CX7 and related entries, the NP40-soluble protein abundance (concentration: 0.1mM) worked out at 1.09 ± 0.065; the NP40-soluble protein abundance (concentration: 0.5mM) was determined as 1.1 ± 0.086; the NP40-soluble protein abundance (concentration: 1mM) was 1 ± 0.073; the NP40-soluble protein abundance (concentration: 2mM) amounted to 1.03 ± 0.091; the NP40-soluble protein abundance (concentration: 4mM) is 0.984 ± 0.1; the NP40-soluble protein abundance (concentration: 6mM) was 0.957 ± 0.041. In addition, the NP40-soluble protein abundance amounted to 0.958 ± 0.1 (concentration: 8mM) and 0.895 ± 0.15 (concentration: 10mM).

Take UniProt Q3B7T1 and related entries: the NP40-soluble protein abundance (concentration: 0.1mM) came out at 1.1 ± 0.089; the NP40-soluble protein abundance (concentration: 0.5mM) came out at 1.07 ± 0.055; the NP40-soluble protein abundance (concentration: 1mM) was found to be 1.05 ± 0.045; the NP40-soluble protein abundance (concentration: 2mM) turned out to be 1.09 ± 0.041; the NP40-soluble protein abundance (concentration: 4mM) came to 1.05 ± 0.028; the NP40-soluble protein abundance (concentration: 6mM) was 1.03 ± 0.043. Also, the NP40-soluble protein abundance (concentration: 8mM) came to 1.09 ± 0.023 and the NP40-soluble protein abundance (concentration: 10mM) was 1.08 ± 0.049.

FGD3 (UniProt Q5JSP0): the NP40-soluble protein abundance (concentration: 0.1mM) came to 0.98 ± 0.041; the NP40-soluble protein abundance (concentration: 0.5mM) is 0.965 ± 0.033; the NP40-soluble protein abundance (concentration: 1mM) is 0.968 ± 0.044; the NP40-soluble protein abundance (concentration: 2mM) came out at 0.925 ± 0.06; the NP40-soluble protein abundance (concentration: 4mM) is 0.915 ± 0.075; the NP40-soluble protein abundance (concentration: 6mM) worked out at 0.908 ± 0.07. For the same target, the NP40-soluble protein abundance (concentration: 8mM) is 0.951 ± 0.045 and the NP40-soluble protein abundance (concentration: 10mM) is 0.923 ± 0.059.

As for UniProt Q16537 and related entries, the NP40-soluble protein abundance came out at 0.973 ± 0.07 (concentration: 0.1mM); 1 ± 0.048 (concentration: 0.5mM); 0.937 ± 0.013 (concentration: 1mM); 0.908 ± 0.026 (concentration: 2mM); 0.889 ± 0.04 (concentration: 4mM); 0.897 ± 0.025 (concentration: 6mM). The NP40-soluble protein abundance by setting is: (concentration: 8mM) 0.901 ± 0.052; (concentration: 10mM) 0.887 ± 0.0097.

Turning to UniProt Q14865, the NP40-soluble protein abundance runs as follows: (concentration: 0.1mM) 0.987 ± 0.049; (concentration: 0.5mM) 1.03 ± 0.14; (concentration: 1mM) 1.06 ± 0.068; (concentration: 2mM) 1.03 ± 0.11; (concentration: 4mM) 1.1 ± 0.12; (concentration: 6mM) 1.05 ± 0.093. The NP40-soluble protein abundance was 1.09 ± 0.083 (concentration: 8mM) and 1.09 ± 0.12 (concentration: 10mM).

In the case of PSME4 (UniProt Q14997), the NP40-soluble protein abundance amounted to 1.09 ± 0.14 (concentration: 0.1mM); 1.14 ± 0.13 (concentration: 0.5mM); 1.12 ± 0.28 (concentration: 1mM); 1.18 ± 0.18 (concentration: 2mM); 1.21 ± 0.18 (concentration: 4mM); 1.16 ± 0.26 (concentration: 6mM). Also, the NP40-soluble protein abundance by setting is: (concentration: 8mM) 1.11 ± 0.23; (concentration: 10mM) 1.09 ± 0.23.

Turning to UBAP2 (UniProt Q5T6F2), the NP40-soluble protein abundance runs as follows: (concentration: 0.1mM) 0.954 ± 0.05; (concentration: 0.5mM) 0.928 ± 0.04; (concentration: 1mM) 0.97 ± 0.048; (concentration: 2mM) 0.928 ± 0.076; (concentration: 4mM) 0.938 ± 0.071; (concentration: 6mM) 0.975 ± 0.086. The NP40-soluble protein abundance runs as follows: (concentration: 8mM) 0.984 ± 0.039; (concentration: 10mM) 1.01 ± 0.079.

With ERCC6L (UniProt Q2NKX8), the NP40-soluble protein abundance stood at 0.994 ± 0.039 (concentration: 0.1mM); 1.01 ± 0.062 (concentration: 0.5mM); 0.961 ± 0.045 (concentration: 1mM); 0.95 ± 0.062 (concentration: 2mM); 0.93 ± 0.04 (concentration: 4mM); 0.944 ± 0.053 (concentration: 6mM). For the same target, the NP40-soluble protein abundance (concentration: 8mM) worked out at 0.931 ± 0.038 and the NP40-soluble protein abundance (concentration: 10mM) was 0.944 ± 0.038.

For UniProt Q15018, the NP40-soluble protein abundance (concentration: 0.1mM) was 0.97 ± 0.051; the NP40-soluble protein abundance (concentration: 0.5mM) was determined as 0.965 ± 0.054; the NP40-soluble protein abundance (concentration: 1mM) amounted to 0.969 ± 0.064; the NP40-soluble protein abundance (concentration: 2mM) was found to be 0.942 ± 0.051; the NP40-soluble protein abundance (concentration: 4mM) was 0.935 ± 0.045; the NP40-soluble protein abundance (concentration: 6mM) is 0.973 ± 0.054. For the same target, the NP40-soluble protein abundance is, setting by setting: (concentration: 8mM) 0.952 ± 0.057; (concentration: 10mM) 0.942 ± 0.07.

On to UniProt Q14696, for which the NP40-soluble protein abundance (concentration: 0.1mM) is 0.938 ± 0.015; the NP40-soluble protein abundance (concentration: 0.5mM) turned out to be 0.939 ± 0.071; the NP40-soluble protein abundance (concentration: 1mM) stood at 0.938 ± 0.049; the NP40-soluble protein abundance (concentration: 2mM) was found to be 0.892 ± 0.074; the NP40-soluble protein abundance (concentration: 4mM) stood at 0.878 ± 0.069; the NP40-soluble protein abundance (concentration: 6mM) worked out at 0.906 ± 0.081. Also, the NP40-soluble protein abundance was found to be 0.902 ± 0.042 (concentration: 8mM) and 0.909 ± 0.069 (concentration: 10mM).
